Patent US6613317B1, “Volatile attractants for diabrotica species” (priority 1988, dated 2003)
Some of these results come from one statement about several compounds together. For part of these data: For at least one compound, name, drawing or mass did not settle the structure. Some compounds share one range, which may span the group rather than tell each member.

Test system: NCR
Experiment: Attraction to baited traps relative to controls (summary)
Format: in vivo, Diabrotica barberi
Conditions: summary statement
Source text: 4-Methylphenylethanol, 4-chlorophenylethanol, 4-fluorophenylethanol, phenylethanol, phenylpropanol, 4-methoxyphenylethanol, 3-methoxyphenylethanol, 2-methoxyphenylethanol, 4-methoxyphenylpropanol, phenylethylamine, and phenylpropylamine attract NCR at rates approximately 5-50 times controls.

| Compound | rate of attraction of NCR relative to controls |
| --- | --- |
| COc1ccc(CCO)cc1 [4-methoxyphenylethanol] | 5-50 times |
| COc1ccccc1CCO [2-methoxyphenylethanol] | 5-50 times |
| COc1cccc(CCO)c1 [3-methoxyphenylethanol] | 5-50 times |
| COc1ccc(CCCO)cc1 [4-methoxyphenylpropanol] | 5-50 times |
| Cc1ccc(CCO)cc1 [4-methylphenylethanol] | 5-50 times |
| OCCc1ccc(Cl)cc1 [4-chlorophenylethanol] | 5-50 times |
| OCCCc1ccccc1 | 5-50 times |
| OCCc1ccc(F)cc1 [4-fluorophenylethanol] | 5-50 times |

Test system: SCR adults
Experiment: as above
Conditions: summary statement

| Compound | rate of attraction of SCR relative to controls |
| --- | --- |
| N#CC=Cc1ccccc1 [X, cinnamonitrile] | 5-20 times |
